Test results taken from patent US20100261767A1, “OXADIAZOLE DERIVATIVES FOR USE AS S1P1 AGONISTS IN THE TREATMENT OF AUTOIMMUNE AND INFLAMMATORY DISORDERS” (priority 2007, published 2010).
Some of these results come from one statement about several compounds together.

Amino acid sequences for entries named in this document (tags omitted). A change or cut given only in a name is not applied to a line headed by its entry.
UniProt Q99500: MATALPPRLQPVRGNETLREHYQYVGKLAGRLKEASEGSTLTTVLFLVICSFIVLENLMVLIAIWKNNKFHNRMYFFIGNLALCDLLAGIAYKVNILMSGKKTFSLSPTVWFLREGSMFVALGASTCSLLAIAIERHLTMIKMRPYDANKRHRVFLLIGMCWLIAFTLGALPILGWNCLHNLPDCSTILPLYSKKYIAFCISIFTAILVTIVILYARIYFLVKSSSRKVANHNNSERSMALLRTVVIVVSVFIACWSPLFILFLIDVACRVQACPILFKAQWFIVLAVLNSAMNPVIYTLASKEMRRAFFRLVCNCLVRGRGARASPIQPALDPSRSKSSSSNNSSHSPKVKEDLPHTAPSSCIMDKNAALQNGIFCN
UniProt P21453, whole entry: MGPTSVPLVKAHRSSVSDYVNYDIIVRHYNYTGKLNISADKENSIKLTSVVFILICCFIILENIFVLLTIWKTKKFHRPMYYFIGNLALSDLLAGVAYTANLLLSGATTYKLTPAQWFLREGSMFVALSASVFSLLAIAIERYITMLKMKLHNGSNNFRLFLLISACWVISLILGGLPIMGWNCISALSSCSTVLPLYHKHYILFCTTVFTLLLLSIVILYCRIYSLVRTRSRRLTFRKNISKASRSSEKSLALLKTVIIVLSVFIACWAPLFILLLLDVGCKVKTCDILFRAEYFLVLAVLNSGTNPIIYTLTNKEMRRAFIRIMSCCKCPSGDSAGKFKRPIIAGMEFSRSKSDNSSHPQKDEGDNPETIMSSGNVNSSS

Tests used:
human S1P3 receptor = target: T1, human S1P3 receptor (Homo sapiens, UniProt Q99500); assay: S1P3 GTPγS Assay; assay type: biochemical; details: S1P3 RBL-2H3 membranes, agonist
T1 construct: expressed in transfected cells; membranes
Description: (§1) For membrane preparations all steps were performed at 4° C. Rat hepatoma cells stably expressing the human S1P1 receptor or Rat Basophilic Leukaemia cells (RBL) stably expressing human S1P3 receptor were grown to 80% confluency before being harvested into 10 ml Phospho-Buffered Saline (PBS) and centrifuged at 1200 rpm for 5 minutes. After removal of the supernatant, the pellet was re-suspended and cells were homogenised within a glass Waring blender for 2 bursts of 15 secs in 200 mls of buffer (50 mM HEPES, 1 mM leupeptin, 25 μg/ml bacitracin, 1 mM EDTA, 1 mM PMSF, 2 μM pepstatin A). The blender was plunged into ice for 5 mins after the first burst and 10-40 mins after the final burst to allow foam to dissipate. The material was then spun at 500 g for 20 mins and the supernatant spun for 36 mins at 48,000 g. The pellet was resuspended in the same buffer as above but without PMSF and pepstatin A. The material was then forced through a 0.6 mm needle, made up to the required volume, (usually ×4 the volume of the original cell pellet), aliquoted and stored frozen at −80° C.
S1P3 membranes from rat basophilic leukaemia cells (RBL-2H3) (1.5 μg/well) were adhered to WGA-coated SPA beads (0.125 mg/well) in assay buffer (HEPES 20 mM, MgCl2 3 mM, NaCl 100 mM and pH adjusted to 7.4 using KOH 5M), GDP 10 μM FAC and saponin 90 μg/ml FAC was also added).
(§2) After 30 minutes pre-coupling on ice the bead and membrane suspension was dispensed into a white Greiner polypropylene LV384-well plate (5 μl/well), containing 0.1 μl of the compound. 5 μl/well [^35S]-GTPγS (0.5 nM final radioligand conc) made up in assay buffer was then added to agonist plates. The final assay cocktail (10.1 μl) was centrifuged at 1000 rpm for 5 minutes then read immediately on a Viewlux reader.
(§3) All test compounds were dissolved in DMSO at a concentration of 10 mM and were prepared in 100% DMSO using a 1 in 4 dilution step to provide 11 point dose response curves. The dilutions were transferred to the assay plates ensuring that the DMSO concentration was constant across the plate for all assays.
(§4) All data was normalized to the mean of 16 high and 16 low control wells on each plate. A four parameter curve fit was then applied.
Alternative Method for S1P3 GTPγS Assay
S1P3 expressing RBL membranes (1.5 μg/well) were homogenised by passing through a 23G needle. These were then adhered to WGA-coated SPA beads (0.125 mg/well) in assay buffer (HEPES 20 mM, MgCl2 10 mM, NaCl 100 mM and pH adjusted to 7.4 using KOH 5M). GDP 10 μM FAC and saponin 90 m/ml FAC were also added
(§5) After 30 minutes precoupling on ice, the bead and membrane suspension was dispensed into white Greiner polypropylene LV 384-well plates (5 μl/well), containing 0.1 μl of compound. 5 μl/well [^35S]-GTPγS (0.5 nM for S1P1 or 0.3 nM for S1P3 final radioligand concentration) made in assay buffer was then added to the plates. The final assay cocktail (10.1 μl) was then sealed, spun on a centrifuge, then read immediately on a Viewlux instrument.

human S1P1 receptor = target: T2, human S1P1 receptor (Homo sapiens, UniProt P21453); assay: S1P1 GTPγS Assay; assay type: biochemical; details: human S1P1 rat hepatoma membranes, agonist
T2 construct: expressed in transfected cells; membranes
Description: Membrane Preparation for S1P1 GTPγS Assay
as §1
Alternative Membrane Preparation for S1P1 GTPγS Assay
as §1, with “All” for “For membrane preparations all”, “Cells” for “Rat hepatoma cells stably expressing the human S1P1 receptor or Rat Basophilic Leukaemia cells (RBL) stably expressing human S1P3 receptor were grown to 80% confluency before being harvested into 10 ml Phospho-Buffered Saline (PBS) and centrifuged at 1200 rpm for 5 minutes. After removal of the supernatant, the pellet was re-suspended and cells”
Human S1P1 rat hepatoma membranes (1.5 μg/well) were adhered to a wheatgerm agglutinin (WGA)-coated scintillation proximity assay (SPA) beads (0.125 mg/well) in assay buffer (HEPES 20 mM, MgCl2 10 mM, NaCl 100 mM and pH adjusted to 7.4 using KOH 5M, GDP 10 μM FAC (final assay concentration) and saponin 90 μg/ml FAC was also added).
as §2, with “μl) was then centrifuged at” for “μl) was centrifuged at”
as §3, §4
Alternative method for S1P1 GTPγS Assay […]
as §5, with “5 μl/well [^35S]-GTPγS (0.5 nM for S1P1 or 0.3 nM for S1P3 final radioligand concentration) made in assay buffer was then added to the plates.” left out

pEC50 (human S1P3 receptor)	pEC50 (human S1P1 receptor)	SMILES
< 6	> 6	CC(C)Oc1ccc(-c2nc(-c3cccc4c3CN(CCC(=O)O)C4)no2)cc1Cl [Example 3, 3-[4-(5-{3-Chloro-4-[(1-methylethyl)oxy]phenyl}-1,2,4-oxadiazol-3-yl)-1,3-dihydro-2H-isoindol-2-yl]propanoic acid]
< 6	> 6	CC(C)Oc1ccc(-c2nc(-c3cccc4c3CN(CCCC(=O)O)C4)no2)cc1Cl [Example 4, 4-[4-(5-{3-Chloro-4-[(1-methylethyl)oxy]phenyl}-1,2,4-oxadiazol-3-yl)-1,3-dihydro-2H-isoindol-2-yl]butanoic acid]
< 6	> 6	CC(C)Oc1ccc(-c2nc(-c3cccc4c3CN(CCCC(=O)O)C4)no2)cc1C#N [Example 5, 4-[4-(5-{3-cyano-4-[(1-methylethyl)oxy]phenyl}-1,2,4-oxadiazol-3-yl)-1,3-dihydro-2H-isoindol-2-yl]butanoic acid]

Continued, molecule first:

SMILES	pEC50 (human S1P3 receptor)	pEC50 (human S1P1 receptor)
CC(C)Oc1ccc(-c2nc(-c3cccc4c3CNC4)no2)cc1C#N.Cl [Example 1, 5-[3-(2,3-Dihydro-1H-isoindol-4-yl)-1,2,4-oxadiazol-5-yl]-2-[(1-methylethyl)oxy]benzonitrile hydrochloride]	< 6	> 6
CC(C)Oc1ccc(-c2nc(-c3cccc4c3CNC4)no2)cc1Cl [Example 2, 4-(5-{3-Chloro-4-[(1-methylethyl)oxy]phenyl}-1,2,4-oxadiazol-3-yl)-2,3-dihydro-1H-isoindole]	< 6	> 6
